# Measured values reported in PubChem BioAssay AID540276 (National Center for Advancing Translational Sciences (NCATS), 2011).
# Several values for one entry are separate records, joined by “and”; a condition that tells them apart may be missing. Equal entries are not always repeated. The whole screen tested about 300,000 compounds, of which about 5,400 (1.8%) were called active. Inconclusive means that the source gave no clear call. Such entries were picked first, then a sample of the others. The call rests on the fitted dose curve; tested in HEK293 cells. Potencies of inconclusive entries are doubtful fits and often do not repeat. Some compounds were tested as several samples or in several runs, with calls that do not always agree.
# Experiment: qHTS for inhibitors of binding or entry into cells for Marburg Virus
# Settings: Marburg virus pseudotyped entry inhibition, cell reporter; series mostly up to 37.8 µM
# Potency means the concentration at half of the fitted maximal effect.
row,Compound,Potency
1,CC(=O)Nc1nonc1-c1nnc(SCC(=O)N(C)c2ccccc2)n1C,inactive
2,CSc1ccc(N=Nc2c(C)[nH]n(C)c2=O)cc1,"inconclusive: 5.62 µM [activator, single point]"
3,CCOC(=O)c1c(C)[nH]c(C)c1C(=O)COC(=O)c1nc2nccc(C)n2n1,"inconclusive: 6.31 µM [inhibitor, single point]"
4,Cc1nc(Nc2ccc(Cl)cc2Cl)sc1C(=O)Nc1ccccc1,"inconclusive: 14.1 µM [inhibitor, single point]"
5,Nc1cc(S(=O)(=O)Nc2cc(Cl)ccc2Cl)ccc1N1CCOCC1,"inconclusive: 35.5 µM [inhibitor, single point]"
6,O=C(CNC(=O)c1ccccc1F)NCCN1C(=O)S/C(=C\c2ccccc2Cl)C1=O,inactive
7,CN(CCc1ccccn1)C(=O)c1ccc(OC2CCN(CCc3ccccc3)CC2)cc1,"inconclusive: 12.6 µM [inhibitor, single point]"
8,Cc1ccc(C)c(NC(=O)CN(C)C(=O)/C=C/c2ccco2)c1,inactive
9,CS(=O)(=O)N(CC(=O)NCC1CCCO1)c1ccc(F)c(Cl)c1 (stereo not drawn),inactive
10,N#CC1(Cc2ccc([N+](=O)[O-])cc2)c2ccccc2C=CN1C(=O)c1ccccc1 (stereo not drawn),"inconclusive: 35.5 µM [inhibitor, single point]"
11,N=c1c(C(=O)NCC2CCCO2)cc2c(=O)n3ccccc3nc2n1Cc1ccco1 (stereo not drawn),"inconclusive: 14.1 µM [inhibitor, partial curve, poor fit]"
12,O=C(N/N=C/c1cccs1)C(=O)N1CCCC1,inactive
13,CCn1c2ccccc2c2cc(N=C3SC(CC(=O)Nc4ccccc4OC)C(=O)N3CCOC)ccc21 (stereo not drawn),"inconclusive: 6.51 µM [inhibitor, single point]"
14,COc1ccc(NC(=O)N2CCN(c3ccc([N+](=O)[O-])cc3)CC2)cc1OC,"inconclusive: 35.5 µM [inhibitor, single point]"
15,CS(=O)(=O)Nc1cccc(C2=NN(S(=O)(=O)c3ccc(F)cc3)C(c3cccs3)C2)c1 (stereo not drawn),inactive
16,Oc1ccc(Br)cc1/C=N/N1CCCCC1,inactive
17,Cn1ncc2c(NCc3ccccc3)ncnc21,inactive
18,COc1ccc(CNC(=O)c2c3c(nc4ccccc24)C(=O)N(C2CCCCC2)C3)c(OC)c1,"inconclusive: 3.55 µM [inhibitor, full curve, poor fit]"
19,CCOc1ccccc1N(CC)C(=O)c1cc2c(=O)[nH]c3ccc(C)cc3c2s1,inactive
20,N=C1/C(=C\c2ccc(-c3cc(Cl)cc(Cl)c3)o2)C(=O)N=C2SC=C(c3ccccc3)N12,"inconclusive: 3.55 µM [inhibitor, partial curve, poor fit]"
21,CCOC(=O)C(C)Sc1nnc(Cc2cc(=O)[nH]c(=O)[nH]2)n1-c1ccc(OCC)cc1 (stereo not drawn),inactive
22,CCOc1ccccc1N1CCN(C(=O)CNC(=O)c2sc3ccccc3c2Cl)CC1,"inconclusive: 35.5 µM [inhibitor, single point]"
23,CCNC(=S)N1CCc2cc(OC)c(OC)cc2C1COc1ccc(F)cc1 (stereo not drawn),"inconclusive: 8.91 µM [inhibitor, partial curve, poor fit]"
24,CC1C/C(=N\NC(=S)NCc2ccccc2)CC(C)(C)C1 (stereo not drawn),"inconclusive: 32.6 µM [inhibitor, single point]"
25,COc1cc(-c2csc(NC3CCCCC3)n2)cc(OC)c1OC,"inconclusive: 29.1 µM [inhibitor, single point]"

row,Compound,Potency
1,Cc1sc2nc3c(C(=O)N4CCCC4)cc(C(=O)c4ccccc4O)cn3c(=O)c2c1C,inactive
2,CCC(=O)Nc1cc(C(=O)OCC(=O)c2ccccc2Cl)ccc1C,inactive
3,CCCN1C(=O)/C(=C/c2ccncc2)SC1=S,inactive
4,CN1CCN(C(=O)Nc2ccccc2CC[N+](=O)[O-])CC1,"inconclusive: 5.62 µM [activator, single point]"
5,CCOC(=O)C1(Cc2cccc(F)c2)CCN(CC2CC2)CC1,"inconclusive: 6.31 µM [inhibitor, partial curve, poor fit]"
6,O=C(Cc1cccs1)Nc1nnc(COc2ccccc2)s1,"inconclusive: 6.51 µM [activator, single point]"
7,CCN(c1ccccc1)S(=O)(=O)c1ccc(C(=O)Nc2ncccc2C)cc1,inactive
8,O=C(COC(=O)c1cccc(S(=O)(=O)N2CCOCC2)c1)NCc1ccccc1,inactive
9,CC(C)CN(C(=O)CCCOc1ccc(Cl)cc1Cl)c1c(N)n(Cc2ccccc2)c(=O)[nH]c1=O,"inconclusive: 35.5 µM [inhibitor, partial curve, poor fit]"
10,CC(=O)Nc1ccc(S(=O)(=O)c2ccc(C)cc2)cc1,inactive
11,COc1ccc(CC(=O)Nc2c3c(nn2C(C)(C)C)CS(=O)(=O)C3)cc1OC,inactive
12,Cc1cccc(-c2noc(CCCC(=O)Nc3cccnc3)n2)c1,inactive
13,COc1cc(OC)cc(C(=O)NCCCn2ccnc2)c1,"inconclusive: 5.62 µM [inhibitor, single point]"
14,Cc1ccc(C)c(NS(=O)(=O)c2cc(C(=O)NCc3ccncc3)ccc2C)c1,"inconclusive: 2.82 µM [inhibitor, partial curve, poor fit]"
15,Cc1ccc(Cn2ccc(NC(=O)c3noc4c3CCCCC4)n2)cc1,"inconclusive: 22.4 µM [inhibitor, single point]"
16,O=C(c1ccc([N+](=O)[O-])cc1)N1CCN(C(=O)c2cccnc2)CC1,"inconclusive: 3.98 µM [inhibitor, full curve, poor fit]"
17,CC(=O)c1cnc2nc(SCc3ccccc3C)nn2c1C,"inconclusive: 15.8 µM [activator, partial curve, poor fit]"
18,Cc1ccnc(NS(=O)(=O)c2ccc(N3C(=O)c4ccccc4C3=O)cc2)n1,"inconclusive: 2.82 µM [inhibitor, single point]"
19,Cc1ccnc(SCc2ccc(C(=O)O)cc2)n1,inactive
20,COc1ccc(-n2c(C)cc3cc(OC(C)=O)ccc32)cc1,inactive
21,C/C(CC(=O)Nc1ccccn1)=N\NC(=O)c1ccc2ccccc2c1,inactive
22,COc1ccc(CC2C(=O)OC(C)(C)OC2=O)c(Cl)c1OC,inactive
23,O=S1(=O)C[C@H](N2CCN(CC3CC3)CC2)[C@@H](COCc2ccccc2)N1,"inconclusive: 28.1 µM [activator, single point]"
24,O=C(O)c1ccc(NC(=S)Nc2ccccc2)cc1,"inconclusive: 0.316 µM [activator, partial curve, poor fit]"
25,O=C(CCn1nc(-c2ccc(Cl)cc2)c2ccccc2c1=O)Nc1cccnc1,"inconclusive: 8.91 µM [inhibitor, partial curve, poor fit]"

# Reformatted: 3 of the compounds above.
row	Compound	Potency
20	COc1ccc(-n2c(C)cc3cc(OC(C)=O)ccc32)cc1	inactive
21	C/C(CC(=O)Nc1ccccn1)=N\NC(=O)c1ccc2ccccc2c1	inactive
22	COc1ccc(CC2C(=O)OC(C)(C)OC2=O)c(Cl)c1OC	inactive

# A stretch of the results above:
row,Compound,Potency
8,O=C(COC(=O)c1cccc(S(=O)(=O)N2CCOCC2)c1)NCc1ccccc1,inactive
9,CC(C)CN(C(=O)CCCOc1ccc(Cl)cc1Cl)c1c(N)n(Cc2ccccc2)c(=O)[nH]c1=O,"inconclusive: 35.5 µM [inhibitor, partial curve, poor fit]"

# (cont.)

row,Compound,Potency
1,O=C(/C=C/c1ccc(O)cc1)c1ccc(O)cc1O,inactive and active: 10 µM
2,CC1(C)Oc2ccc3ccc(=O)oc3c2/C(=C/Nc2ccccc2)C1=O,inactive
3,Nc1nnc(SCCOc2ccc(Br)cc2)s1,"inconclusive: 35.5 µM [inhibitor, single point]"
4,Cc1cc(C)c(S(=O)(=O)N/N=C/c2ccc3c(c2)OCO3)c(C)c1,inactive
5,Cc1ccccc1Nc1nc(N)nc(CSCc2c(C)noc2C)n1,inactive
6,CCOC(=O)C(C#N)=CN1CCN(C(=O)CCCl)c2ccccc21,inactive
7,Cc1ccc(C)c(OCC(O)CN2CCC(CN3C(=O)c4cccc5cccc(c45)C3=O)CC2)c1 (stereo not drawn),"inconclusive: 1.16 µM [activator, single point]"
8,Cc1ccnc2nc(C(=O)Nc3nc4ccccc4s3)nn12,"inconclusive: 35.5 µM [inhibitor, single point]"
9,Cc1nn(-c2ccccc2)nc1C(=O)Nc1ccc2c(c1)OCCO2,"inconclusive: 35.5 µM [inhibitor, single point]"
10,COc1ccc(OC)c(NC(=O)CN(Cc2ccc(Cl)cc2)S(C)(=O)=O)c1,"inconclusive: 7.08 µM [inhibitor, partial curve, poor fit]"
11,Cc1ccc(/C=N/NC(=O)c2cccs2)o1,inactive
12,CN(C(=O)COc1cc(=O)n(C)c2ccccc12)c1ccc(Br)cc1,inactive
13,COCCC(=O)N1CCC(Oc2ccc(C(=O)NCc3nccn3C)cc2)CC1,inactive
14,COC(=O)CC(c1ccccc1F)N1Cc2ccccc2C1=O (stereo not drawn),"inconclusive: 3.16 µM [inhibitor, single point]"
15,COc1ccc(N(C(=O)c2cccnc2)S(=O)(=O)c2ccc3c4c(cccc24)C(=O)N3C)cc1,"inconclusive: 0.501 µM [inhibitor, full curve, poor fit]"
16,COc1ccc(CCNC(=O)c2csc3c2CCCC3)cc1,"inconclusive: 35.5 µM [inhibitor, single point]"
17,CN(CC(=O)Nc1ccc(F)c(F)c1F)C(=O)c1ccc(N2CCCC2=O)cc1,"inconclusive: 35.5 µM [activator, single point]"
18,CC(=O)c1c(C)nc2nc(-c3ccccc3)nn2c1C,"inconclusive: 2.51 µM [activator, full curve, poor fit]"
19,CC1=NN(c2nc(-c3ccccc3)cs2)C(=O)C1,inactive
20,Cc1cc(NC(=O)c2n[nH]c(=O)c3ccccc23)ccc1Br,inactive
21,Cc1ccccc1C(=O)O/N=C(\N)c1ccncc1,"inconclusive: 17.8 µM [inhibitor, single point]"
22,CC(C)(C)C1CCC(=NNc2nc3ccccc3[nH]2)CC1 (stereo not drawn),"inconclusive: 35.5 µM [inhibitor, single point]"
23,Cc1ccc(C(=O)NC(C)CCc2ccccc2)cc1S(=O)(=O)N1CCOCC1 (stereo not drawn),"inconclusive: 0.282 µM [inhibitor, full curve, poor fit]"
